In patent US20250302039A1, “USE OF N-SUBSTITUTED PYRROLIDONES TO PROMOTE THE PENETRATION OF AGROCHEMICAL ACTIVE AGENTS” (priority 2016, published 2025):
Some entries share one result that the patent states for a list of compounds.

experiment: Solutions of active ingredients in N-(n-butyl)-2-pyrrolidone; format: physicochemical; details: solvent N-(n-butyl)-2-pyrrolidone; based on the total weight of the solution

SMILES | amount of active ingredient in solutions prepared with N-(n-butyl)-2-pyrrolidone
N#C/N=C1\SCCN1Cc1ccc(Cl)nc1 [thiacloprid] | greater than 15 % by weight
CSc1nnc(C(C)(C)C)c(=O)n1N [metribuzin] | greater than 50 % by weight
CC(C)N(C)S(=O)(=O)NC(=O)c1cc(-n2c(=O)cc(C(F)(F)F)n(C)c2=O)c(F)cc1Cl [saflufenacil] | greater than 20 % by weight
O=[N+]([O-])NC1=NCCN1Cc1ccc(Cl)nc1 [imidacloprid] | greater than 15 % by weight
CC(C)(C)C(O)(CCc1ccc(Cl)cc1)Cn1cncn1 (centres unmarked) [tebuconazole] | greater than 50 % by weight
